Data from PMC3206029.

Protein sequences, listed by entry. Tags and fused reporters are not part of them. Lines headed by an entry give the natural chain unless they say otherwise; changes in a name come on top.
UniProt Q14790: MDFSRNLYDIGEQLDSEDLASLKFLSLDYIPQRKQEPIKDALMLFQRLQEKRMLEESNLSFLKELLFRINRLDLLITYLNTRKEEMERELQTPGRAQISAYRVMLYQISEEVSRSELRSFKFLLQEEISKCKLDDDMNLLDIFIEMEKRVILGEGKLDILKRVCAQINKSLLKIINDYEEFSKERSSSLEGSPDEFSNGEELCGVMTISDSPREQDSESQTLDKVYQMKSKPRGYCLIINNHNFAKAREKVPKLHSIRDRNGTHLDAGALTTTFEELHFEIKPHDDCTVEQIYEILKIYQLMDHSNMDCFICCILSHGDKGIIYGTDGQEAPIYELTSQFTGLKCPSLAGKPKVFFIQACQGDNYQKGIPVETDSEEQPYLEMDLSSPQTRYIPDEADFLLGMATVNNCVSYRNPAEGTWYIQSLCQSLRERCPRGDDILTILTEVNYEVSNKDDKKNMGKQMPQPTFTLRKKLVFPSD

Experiments:
[1] = target: caspase 8 with mutant DEDI-domain (DEDIm) (UniProt Q14790); assay: co-IP; caspase 8 mutants (DEDIm, PBm, DEDIIm) transiently transfected into MIP/SP cells; co-IP with SPARC
[2] = target: caspase 8 with mutant DEDII-domain (DEDIIm) (UniProt Q14790); assay: as above

binding [1]: no binding
binding [2]: binds
B1: SPARC overexpressed in MIP/SP cells (protein, UniProt P09486 18-303)
chain: APQQEALPDETEVVEETVAEVTEVSVGANPVQVEVGEFDDGAEETEEEVVAENPCQNHHCKHGKVCELDENNTPMCVCQDPTSCPAPIGEFEKVCSNDNKTFDSSCHFFATKCTLEGTKKGHKLHLDYIGPCKYIPPCLDSELTEFPLRMRDWLKNVLVTLYERDEDNNLLTEKQKLRVKKIHENEKRLEAGDHPVELLARDFEKNYNMYIFPVHWQFGQLDQHPIDGYLSHTELAPLRAPLIPMEHCTTRFFETCDLDNDKYIALDEWAGCFGIKQKDIDKDLVI

These are yes or no findings as the source states them, for the method shown. In cells and extracts the contact can be indirect. For some assays here: A result given as binding can be weak or reduced; the word gives no strength.
